The name of at least one read-out is uncertain.
Assay: Release half-life of the releasable PG1 conjugate in 1XPBS
Assay type: physicochemical
Settings: in 1XPBS at 37° C.

Sequences of proteins named here, by UniProt entry; tags and fusion partners are left off. A change or cut given only in a name is not applied to a line headed by its entry.
UniProt P32194: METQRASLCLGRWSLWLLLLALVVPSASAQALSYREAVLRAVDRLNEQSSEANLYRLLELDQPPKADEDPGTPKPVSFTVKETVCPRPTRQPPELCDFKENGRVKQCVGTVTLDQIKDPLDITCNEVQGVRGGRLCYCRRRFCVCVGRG

mono-[mPEG2-CAC-FMOC-40K]-[PG-1] (RGGRLCYCRRRFCVCVGR; Protegrin-1 releasable CAC-PEG2-FMOC 40K PEG; UniProt P32194 131-148, looked up) [CAC-PEG2-FMOC-40K-PG-1, PG1 conjugate with a releasable linker]
release t1/2 (listed as CAC40K-40K-PG1): at 37 °C = ~19.6 hr) | release t1/2 (listed as CAC-40K-PG1): ~19.6 h

Reference: patent US20110166063A1 (priority 2008, published 2011)
